{
  "source": "paper PMC4524894",
  "binders": {"B1": {"name": "OsPYL/RCAR5 fused to the C-terminal fragment of YFP (pVYCE) (receptor, UniProt Q6I5C3 1-209)", "chain": "MVGLVGGGGWRVGDDAAGGGGGGAVAAGAAAAAEAEHMRRLHSHAPGEHQCSSALVKHIKAPVHLVWSLVRSFDQPQRYKPFVSRCVVRGGDLEIGSVREVNVKTGLPATTSTERLELLDDDEHILSVKFVGGDHRLRNYSSIVTVHPESIDGRPGTLVIESFVVDVPDGNTKDETCYFVEAVIKCNLTSLAEVSERLAVQSPTSPLEQ"}},
  "target": "T1, OsPP2C6 fused to the N-terminal fragment of YFP (pVYNE) (rice) (UniProt Q0JLP9)",
  "T1 sequence": "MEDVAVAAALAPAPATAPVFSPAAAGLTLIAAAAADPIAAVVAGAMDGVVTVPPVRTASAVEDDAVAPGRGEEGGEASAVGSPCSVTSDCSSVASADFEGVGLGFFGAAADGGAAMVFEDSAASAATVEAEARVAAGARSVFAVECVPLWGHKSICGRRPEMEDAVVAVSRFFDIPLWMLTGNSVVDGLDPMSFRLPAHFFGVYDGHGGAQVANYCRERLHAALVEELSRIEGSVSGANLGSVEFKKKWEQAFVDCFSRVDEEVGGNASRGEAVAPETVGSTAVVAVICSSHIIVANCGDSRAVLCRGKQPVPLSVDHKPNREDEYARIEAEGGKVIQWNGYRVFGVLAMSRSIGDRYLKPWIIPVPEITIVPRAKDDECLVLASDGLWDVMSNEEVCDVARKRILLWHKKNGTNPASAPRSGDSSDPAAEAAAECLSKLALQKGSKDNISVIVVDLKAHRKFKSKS",
  "assay": "split reporter; BiFC in rice protoplasts; pVYCE and pVYNE plasmids (15 ug each) by PEG-mediated transfection; reconstituted YFP fluorescence observed by microscopy at 16-24 h incubation",
  "note": "No constants are given. Whether binding was seen depends on the method and setting. In cells and extracts the contact can be indirect. Some results given as binding are weak or reduced against the parent protein; the word gives no strength. Sequences can lack the tags named with a protein.",
  "data": [
    {"binder": "B1", "values": [
      {"measurement": "binding", "result": "binds"}
    ]}
  ]
}
